Assay results reported in patent publication US20110301095A1.
Results are given in words; binding and its absence hold for the method and conditions named. Some binding calls cover weakened binding; strength is not graded here.

The chains behind the UniProt entries cited, without tags or fusion partners.
UniProt Q61221: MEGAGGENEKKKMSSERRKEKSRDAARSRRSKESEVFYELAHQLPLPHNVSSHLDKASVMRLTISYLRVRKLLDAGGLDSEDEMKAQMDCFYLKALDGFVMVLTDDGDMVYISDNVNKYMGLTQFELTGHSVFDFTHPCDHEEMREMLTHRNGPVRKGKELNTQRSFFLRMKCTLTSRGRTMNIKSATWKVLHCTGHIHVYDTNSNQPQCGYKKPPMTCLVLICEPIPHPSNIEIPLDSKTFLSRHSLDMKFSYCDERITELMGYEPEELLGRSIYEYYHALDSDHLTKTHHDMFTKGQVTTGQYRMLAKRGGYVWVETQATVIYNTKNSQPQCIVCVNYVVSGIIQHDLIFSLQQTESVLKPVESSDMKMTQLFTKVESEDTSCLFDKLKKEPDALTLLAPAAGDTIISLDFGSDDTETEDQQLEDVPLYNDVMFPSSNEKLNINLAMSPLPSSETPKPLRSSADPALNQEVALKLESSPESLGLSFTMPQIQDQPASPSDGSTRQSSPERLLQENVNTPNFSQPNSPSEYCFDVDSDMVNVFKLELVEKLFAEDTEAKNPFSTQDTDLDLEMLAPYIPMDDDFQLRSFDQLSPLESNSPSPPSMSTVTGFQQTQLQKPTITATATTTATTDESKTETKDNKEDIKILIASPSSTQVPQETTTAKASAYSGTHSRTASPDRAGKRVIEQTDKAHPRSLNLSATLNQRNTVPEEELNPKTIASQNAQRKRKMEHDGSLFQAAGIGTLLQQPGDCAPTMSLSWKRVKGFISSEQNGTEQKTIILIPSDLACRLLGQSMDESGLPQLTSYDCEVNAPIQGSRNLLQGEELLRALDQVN

Target: endogenous HIF-1α of TRAMP-C cells (mouse) (UniProt Q61221)
Test: immunoprecipitation of endogenous HIF-1α from TRAMP-C cells under hypoxia, immunoblot (FIG. 3F)

B1: endogenous FoxA2 of TRAMP-C cells (protein, mouse, UniProt P35583 1-459, looked up)
chain: MLGAVKMEGHEPSDWSSYYAEPEGYSSVSNMNAGLGMNGMNTYMSMSAAAMGGGSGNMSAGSMNMSSYVGAGMSPSLAGMSPGAGAMAGMSGSAGAAGVAGMGPHLSPSLSPLGGQAAGAMGGLAPYANMNSMSPMYGQAGLSRARDPKTYRRSYTHAKPPYSYISLITMAIQQSPNKMLTLSEIYQWIMDLFPFYRQNQQRWQNSIRHSLSFNDCFLKVPRSPDKPGKGSFWTLHPDSGNMFENGCYLRRQKRFKCEKQLALKEAAGAASSGGKKTAPGSQASQAQLGEAAGSASETPAGTESPHSSASPCQEHKRGGLSELKGAPASALSPPEPAPSPGQQQQAAAHLLGPPHHPGLPPEAHLKPEHHYAFNHPFSINNLMSSEQQHHHSHHHHQPHKMDLKAYEQVMHYPGGYGSPMPGSLAMGPVTNKAGLDASPLAADTSYYQGVYSRPIMNSS
**Q.** Which binding does the source give for B1 here?
**A.** binds
